From article PMC6277856

Amino acid sequences for entries named in this document (tags omitted). Residues count along the entry.
Latency-associated peptide (LAP) (mouse (endogenous in SuperMApo of mouse macrophages and apoptotic thymic cells)) (P04202, residues 30-278): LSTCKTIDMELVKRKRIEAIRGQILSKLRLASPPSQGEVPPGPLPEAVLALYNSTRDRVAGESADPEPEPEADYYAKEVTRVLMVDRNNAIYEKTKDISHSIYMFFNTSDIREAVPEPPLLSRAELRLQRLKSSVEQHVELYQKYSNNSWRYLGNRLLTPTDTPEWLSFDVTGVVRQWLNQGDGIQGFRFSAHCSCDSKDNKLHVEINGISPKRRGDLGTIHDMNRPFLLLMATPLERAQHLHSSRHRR
UniProt P35441, residues 19-1170: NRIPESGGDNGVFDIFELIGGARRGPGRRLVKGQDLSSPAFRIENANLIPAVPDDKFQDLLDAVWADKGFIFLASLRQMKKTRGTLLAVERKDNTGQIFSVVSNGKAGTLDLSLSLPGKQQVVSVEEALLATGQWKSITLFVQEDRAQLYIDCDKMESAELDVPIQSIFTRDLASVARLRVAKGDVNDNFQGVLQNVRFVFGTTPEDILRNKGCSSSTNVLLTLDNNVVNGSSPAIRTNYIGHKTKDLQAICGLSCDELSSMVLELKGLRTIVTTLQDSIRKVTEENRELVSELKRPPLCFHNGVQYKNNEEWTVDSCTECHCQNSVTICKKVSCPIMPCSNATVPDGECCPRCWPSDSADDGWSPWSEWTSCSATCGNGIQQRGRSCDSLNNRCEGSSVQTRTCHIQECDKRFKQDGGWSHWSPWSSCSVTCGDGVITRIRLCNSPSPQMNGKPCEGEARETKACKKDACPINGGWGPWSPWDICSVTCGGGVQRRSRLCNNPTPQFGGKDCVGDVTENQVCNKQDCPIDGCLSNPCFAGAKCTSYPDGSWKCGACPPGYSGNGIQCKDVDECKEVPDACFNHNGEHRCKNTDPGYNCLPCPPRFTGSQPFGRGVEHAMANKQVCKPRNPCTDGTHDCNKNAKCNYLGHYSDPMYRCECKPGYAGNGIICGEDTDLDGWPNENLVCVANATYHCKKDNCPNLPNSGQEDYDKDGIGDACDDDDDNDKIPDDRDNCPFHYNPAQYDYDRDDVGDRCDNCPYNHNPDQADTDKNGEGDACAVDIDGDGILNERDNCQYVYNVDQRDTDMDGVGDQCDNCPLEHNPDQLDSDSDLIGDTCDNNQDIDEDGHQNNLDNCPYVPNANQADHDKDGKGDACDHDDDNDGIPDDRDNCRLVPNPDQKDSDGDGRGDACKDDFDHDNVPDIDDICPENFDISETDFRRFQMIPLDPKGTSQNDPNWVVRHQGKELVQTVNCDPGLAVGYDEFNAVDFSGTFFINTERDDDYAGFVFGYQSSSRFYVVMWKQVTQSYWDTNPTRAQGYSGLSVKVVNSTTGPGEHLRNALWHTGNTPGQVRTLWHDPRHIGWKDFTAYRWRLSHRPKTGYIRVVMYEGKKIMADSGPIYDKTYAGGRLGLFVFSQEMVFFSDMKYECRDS
UniProt P07356: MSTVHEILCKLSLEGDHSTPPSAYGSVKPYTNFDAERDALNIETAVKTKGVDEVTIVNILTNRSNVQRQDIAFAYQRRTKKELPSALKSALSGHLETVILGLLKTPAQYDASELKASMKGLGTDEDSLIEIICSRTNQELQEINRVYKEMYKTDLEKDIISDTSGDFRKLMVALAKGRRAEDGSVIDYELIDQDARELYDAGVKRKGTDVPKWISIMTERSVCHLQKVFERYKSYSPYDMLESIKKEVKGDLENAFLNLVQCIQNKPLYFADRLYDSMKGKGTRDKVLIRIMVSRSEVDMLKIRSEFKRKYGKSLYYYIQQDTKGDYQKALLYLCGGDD
UniProt P34960, residues 110-473: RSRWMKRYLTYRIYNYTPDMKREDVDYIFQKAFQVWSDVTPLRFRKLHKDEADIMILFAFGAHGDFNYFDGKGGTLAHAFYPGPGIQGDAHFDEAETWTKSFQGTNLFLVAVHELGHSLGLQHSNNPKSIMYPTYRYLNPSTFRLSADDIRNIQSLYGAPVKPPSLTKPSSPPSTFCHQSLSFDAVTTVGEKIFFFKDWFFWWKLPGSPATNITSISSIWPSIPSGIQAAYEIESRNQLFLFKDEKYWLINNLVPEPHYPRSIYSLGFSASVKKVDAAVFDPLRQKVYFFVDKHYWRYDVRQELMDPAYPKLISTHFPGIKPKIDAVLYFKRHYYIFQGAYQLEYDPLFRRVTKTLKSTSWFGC

Tests used:
[1] = molecular target: TGF-β1 (mouse (endogenous in SuperMApo of mouse macrophages and apoptotic thymic cells)) (UniProt P04202); experiment: affinity purification with mass spectrometry; surface plasmon resonance biochips coated with anti-TGF-β1 antibody; SuperMApo injected; mass spectrometry of the factors retained at the biochip surface
[2] = molecular target: Latency-associated peptide (LAP) (mouse (endogenous in SuperMApo of mouse macrophages and apoptotic thymic cells)) (UniProt P04202); experiment: affinity purification with mass spectrometry; surface plasmon resonance biochips coated with anti-LAP antibody; SuperMApo injected; mass spectrometry of the factors retained at the biochip surface

Molecule: thrombospondin-1 (Thbs1) (from UniProt P35441 19-1170)
- binding [1]: binds
- binding [2]: binds

Molecule: Annexin-A2 (from UniProt P07356 1-339)
- binding [2]: binds

Molecule: transthyretin (Ttr) (from UniProt P07309 21-147)
- binding [1]: binds
- binding [2]: binds

Molecule: macrophage metalloelastase MMP12 (from UniProt P34960 110-473) (enzyme)
- binding [1]: binds
- binding [2]: binds

B1: apolipoprotein E (ApoE) (protein, UniProt P08226 19-311)
chain: EGEPEVTDQLEWQSNQPWEQALNRFWDYLRWVQTLSDQVQEELQSSQVTQELTALMEDTMTEVKAYKKELEEQLGPVAEETRARLGKEVQAAQARLGADMEDLRNRLGQYRNEVHTMLGQSTEEIRARLSTHLRKMRKRLMRDAEDLQKRLAVYKAGAREGAERGVSAIRERLGPLVEQGRQRTANLGAGAAQPLRDRAQAFGDRIRGRLEEVGNQARDRLEEVREHMEEVRSKMEEQTQQIRLQAEIFQARLKGWFEPIVEDMHRQWANLMEKIQASVATNPIITPVAQENQ
- binding [1]: binds
- binding [2]: binds

B2: lipoprotein lipase (enzyme, UniProt P11152 28-474)
chain: ADAGRDFSDIESKFALRTPEDTAEDTCHLIPGLADSVSNCHFNHSSKTFVVIHGWTVTGMYESWVPKLVAALYKREPDSNVIVVDWLYRAQQHYPVSAGYTKLVGNDVARFINWMEEEFNYPLDNVHLLGYSLGAHAAGVAGSLTNKKVNRITGLDPAGPNFEYAEAPSRLSPDDADFVDVLHTFTRGSPGRSIGIQKPVGHVDIYPNGGTFQPGCNIGEAIRVIAERGLGDVDQLVKCSHERSIHLFIDSLLNEENPSKAYRCNSKEAFEKGLCLSCRKNRCNNLGYEINKVRAKRSSKMYLKTRSQMPYKVFHYQVKIHFSGTEDGKQHNQAFEISLYGTVAESENIPFTLPEVSTNKTYSFLIYTEVDIGELLMMKLKWISDSYFSWPDWWSSPSFVIERIRVKAGETQKKVIFCAREKVSHLQKGKDSAVFVKCHDKSLKKSG
- binding [2]: binds

These are yes or no findings as the source states them, for the method shown. In cells and extracts the contact can be indirect. Here binding means that the protein was enriched with, or labelled near, the bait; the list need not be complete.
